Experimental data taken from article doi:10.1101/282210.
These are yes or no findings as the source states them, for the method shown. In cells and extracts the contact can be indirect. These calls come from enrichment with a bait or labelling near it, and not all partners need be listed.

The chains behind the UniProt entries cited, without tags or fusion partners.
UniProt Q9Y484: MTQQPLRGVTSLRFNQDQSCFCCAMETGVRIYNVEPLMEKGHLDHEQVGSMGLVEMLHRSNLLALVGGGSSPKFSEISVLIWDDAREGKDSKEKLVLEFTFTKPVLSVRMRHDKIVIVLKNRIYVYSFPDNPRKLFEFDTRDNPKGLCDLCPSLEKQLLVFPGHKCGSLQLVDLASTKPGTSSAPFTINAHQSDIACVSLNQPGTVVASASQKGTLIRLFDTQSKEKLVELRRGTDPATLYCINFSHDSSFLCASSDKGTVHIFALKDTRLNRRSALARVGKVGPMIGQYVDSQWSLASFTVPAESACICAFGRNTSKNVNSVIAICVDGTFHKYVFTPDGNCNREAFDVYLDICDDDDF
UniProt Q96BY7: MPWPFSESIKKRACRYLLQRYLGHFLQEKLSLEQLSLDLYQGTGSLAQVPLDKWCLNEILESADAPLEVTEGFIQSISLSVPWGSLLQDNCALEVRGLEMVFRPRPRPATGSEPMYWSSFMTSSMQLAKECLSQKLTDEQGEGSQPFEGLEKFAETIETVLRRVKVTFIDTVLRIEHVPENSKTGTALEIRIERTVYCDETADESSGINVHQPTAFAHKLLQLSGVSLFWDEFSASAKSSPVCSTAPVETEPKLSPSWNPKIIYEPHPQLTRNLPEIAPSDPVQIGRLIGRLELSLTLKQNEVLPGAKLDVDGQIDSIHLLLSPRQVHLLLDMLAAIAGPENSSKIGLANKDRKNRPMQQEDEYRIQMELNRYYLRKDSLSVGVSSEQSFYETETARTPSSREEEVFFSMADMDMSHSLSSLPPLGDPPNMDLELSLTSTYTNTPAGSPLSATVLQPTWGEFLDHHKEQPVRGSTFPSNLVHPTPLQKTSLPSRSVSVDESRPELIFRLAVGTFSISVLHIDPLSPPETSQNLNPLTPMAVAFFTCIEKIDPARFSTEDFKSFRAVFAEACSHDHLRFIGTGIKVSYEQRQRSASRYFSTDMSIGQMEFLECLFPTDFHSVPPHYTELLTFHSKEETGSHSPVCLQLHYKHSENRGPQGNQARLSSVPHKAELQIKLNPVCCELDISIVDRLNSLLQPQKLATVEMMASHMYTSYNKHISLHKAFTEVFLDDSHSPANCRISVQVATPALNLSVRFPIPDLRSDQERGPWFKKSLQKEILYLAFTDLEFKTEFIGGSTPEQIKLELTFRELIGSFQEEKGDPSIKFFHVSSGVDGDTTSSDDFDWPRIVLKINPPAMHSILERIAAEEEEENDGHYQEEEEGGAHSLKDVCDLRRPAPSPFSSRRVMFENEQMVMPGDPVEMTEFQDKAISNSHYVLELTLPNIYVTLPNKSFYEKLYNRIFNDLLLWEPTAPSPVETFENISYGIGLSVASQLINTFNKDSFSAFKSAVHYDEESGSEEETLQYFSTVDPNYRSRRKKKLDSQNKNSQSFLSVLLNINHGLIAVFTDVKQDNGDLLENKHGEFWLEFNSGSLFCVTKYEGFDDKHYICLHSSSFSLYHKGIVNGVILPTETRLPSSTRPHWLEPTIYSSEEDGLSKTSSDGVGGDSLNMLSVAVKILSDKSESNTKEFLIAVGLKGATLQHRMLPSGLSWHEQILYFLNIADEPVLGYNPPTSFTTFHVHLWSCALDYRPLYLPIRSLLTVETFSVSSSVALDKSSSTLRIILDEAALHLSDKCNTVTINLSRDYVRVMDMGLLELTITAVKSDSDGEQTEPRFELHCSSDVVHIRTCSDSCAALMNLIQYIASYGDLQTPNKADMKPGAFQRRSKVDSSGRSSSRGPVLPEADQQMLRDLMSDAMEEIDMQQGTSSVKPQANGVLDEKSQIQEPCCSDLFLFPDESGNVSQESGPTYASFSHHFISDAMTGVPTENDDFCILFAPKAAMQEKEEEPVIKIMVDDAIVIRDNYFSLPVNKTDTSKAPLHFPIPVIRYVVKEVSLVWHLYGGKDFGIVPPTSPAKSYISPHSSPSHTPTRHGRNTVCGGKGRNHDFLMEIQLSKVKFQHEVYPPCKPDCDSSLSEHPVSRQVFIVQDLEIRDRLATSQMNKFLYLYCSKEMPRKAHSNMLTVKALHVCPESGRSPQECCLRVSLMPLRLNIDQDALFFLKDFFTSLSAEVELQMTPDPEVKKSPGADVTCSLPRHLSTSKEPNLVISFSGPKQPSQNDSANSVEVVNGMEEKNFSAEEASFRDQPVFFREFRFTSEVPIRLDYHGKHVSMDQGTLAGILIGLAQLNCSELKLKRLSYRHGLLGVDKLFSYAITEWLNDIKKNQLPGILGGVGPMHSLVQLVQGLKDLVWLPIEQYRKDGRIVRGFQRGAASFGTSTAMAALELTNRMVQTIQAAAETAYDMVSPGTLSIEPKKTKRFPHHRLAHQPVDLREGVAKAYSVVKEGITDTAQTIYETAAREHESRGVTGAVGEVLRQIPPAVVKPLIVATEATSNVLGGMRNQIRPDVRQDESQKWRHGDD

Biological target: WDR45 (UniProt Q9Y484)
Assay: affinity purification with mass spectrometry

- binding: binds
Substance: ATG2B (from UniProt Q96BY7 1-2078)
